Results are given in words; binding and its absence hold for the method and conditions named. In cells and extracts the contact can be indirect. Some results given as binding are weak or reduced against the parent protein; the word gives no strength. Sequences can lack the tags named with a protein.
Molecular target: T1, HCMV glycoprotein US10, untagged, transiently expressed (human cytomegalovirus (HCMV) AD169) (UniProt P09728)
T1 sequence: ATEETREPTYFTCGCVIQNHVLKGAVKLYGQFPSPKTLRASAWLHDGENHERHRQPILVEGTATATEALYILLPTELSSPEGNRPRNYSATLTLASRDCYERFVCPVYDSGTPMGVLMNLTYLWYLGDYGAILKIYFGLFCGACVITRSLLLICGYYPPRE
Experiment: co-IP; anti-US10 rabbit antiserum precipitation from wild-type or HLA-I KO HeLa cells transiently transfected with US10 and tapasin; 35S labelling 3 hr; digitonin lysate

Substance: tapasin, overexpressed (wild-type sequence in pcDNA3.1) (from UniProt O15533 21-448)
- binding: binds
